Data published in the supplement of paper PMC12889115.
Some of the results follow. Values are raw readings; no control value is given beside them.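 In the initial screen, polymyxin B was used at a concentration that permeabilizes Salmonella's outer membrane but not its inner membrane. Maximum growth was set by DMSO wells with or without polymyxin B. Since plates varied, data were ranked per plate, and compounds giving the lowest OD600 advanced as hits.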

Test system: Salmonella enterica serovar Typhimurium SL1344
Assay: bacterial growth OD600 after 18 h with compound and polymyxin B; higher = more bacterial growth (less inhibition)
Conditions: 50 µM, Mueller-Hinton broth

## CC1(C)C(=O)NCCN1Cc1cn(-c2ccccc2)nc1-c1ccc2c(c1)OCO2
Polymyxin B 1 µg/mL
  bacterial growth OD600: 0.845

## CCc1ocnc1C(=O)NC1CC(=O)N(Cc2cccc3ccccc23)C1 (centres undefined)
Polymyxin B 1 µg/mL
  bacterial growth OD600: 1.08

## Cc1ccc(CN2CCN(Cc3ccc(F)cc3F)CC2CCO)o1 (centres undefined)
Polymyxin B 1 µg/mL
  bacterial growth OD600: 0.904

## COCc1noc(-c2ccc(NC[C@H]3CCc4ccccc4O3)nc2)n1
Polymyxin B 1 µg/mL
  bacterial growth OD600: 0.767

## CC(C)CS(=O)(=O)c1ncc(CN(C)CC2CCOCC2)n1Cc1ccccc1
Polymyxin B 1 µg/mL
  bacterial growth OD600: 0.633

## COCC(=O)NC1CC(=O)N(Cc2ccccc2C(F)(F)F)C1 (centres undefined)
Polymyxin B 1 µg/mL
  bacterial growth OD600: 0.865

## O=C(/C=C/c1cccnc1)N1CCC2(CCCN(CCc3ccccc3)C2)C1 (centres undefined)
Polymyxin B 0.75 µg/mL
  bacterial growth OD600: 0.789

## COC(=O)CCC(=O)N1CCCC(C(=O)c2ccc3cc(OC)ccc3c2)C1 (centres undefined)
Polymyxin B 1 µg/mL
  bacterial growth OD600: 0.788

## CSc1ccc(CC2(CCC(=O)NC(C)c3cccs3)CCC(=O)N2)cc1 (centres undefined)
Polymyxin B 0.75 µg/mL
  bacterial growth OD600: 0.782
